PubChem BioAssay AID602196 | INSERM, 2012
The whole screen tested about 23,000 reagents; below is a random part of them. Of all reagents, 455 (2%) got an active call. 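Active includes both protection and sensitisation; some change values fall well beyond the stated -50 to +50 range.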 Not all columns of the deposit are shown. Reagent sequences are not shown. Not given: the amount of reagent.

- Purpose: 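Knock-downs that protect lung cancer cells from cisplatin or sensitise them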
- System: human A549 lung cancer cells
- Knock-down reagent: siRNA pair against human genes
- Timing: 48 h transfection before cisplatin; time from cisplatin to read-out not stated
- Conditions: cisplatin at a dose killing half of control-siRNA cells; exact dose and duration not given
- Read-out: 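Shift in cisplatin death relative to control siRNA, from -50 (all cells die) to +50 (no cells die); siRNAs harmful on their own scored 0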
- Direction: two-siRNA summed score (-2 to +2): higher = both siRNAs protect from cisplatin killing; -2 means both sensitise
- Rule for the call: 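Each siRNA scores 0 if harmful alone by LDH or WST-1, otherwise +1 if it reduces and -1 if it increases cisplatin killing; a gene is active when both siRNAs agree (sum +2 or -2)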
- Meaning of the calls: active = both siRNAs shift cisplatin killing the same way; inactive = no consistent shift, or siRNA harmful alone

For UBXN6, the values are two-siRNA summed score (-2 to +2) = -1; inactive.
SIPA1L1 gave two-siRNA summed score (-2 to +2) = 0; inactive.
With knock-down of SEL1L2 the results were two-siRNA summed score (-2 to +2) = -1; inactive.
SERPINB9P1 gave two-siRNA summed score (-2 to +2) = 1; inactive.
For IP6K2 the deposit lists two-siRNA summed score (-2 to +2) = 0; inactive.
After knock-down of TCF7, the record shows two-siRNA summed score (-2 to +2) = 0; inactive.
Knock-down of PRR35 resulted in: two-siRNA summed score (-2 to +2) = 0; inactive.
For FBN1, the values are two-siRNA summed score (-2 to +2) = 0; inactive.
With knock-down of TSPOAP1, the screen gave two-siRNA summed score (-2 to +2) = 0; inactive.
Against CCDC77, the entry reads two-siRNA summed score (-2 to +2) = 0; inactive.
For LOC440779 the deposit lists two-siRNA summed score (-2 to +2) = 0; inactive.
Against SERPIND1, the entry reads two-siRNA summed score (-2 to +2) = 0; inactive.
Silencing of KHNYN gave: two-siRNA summed score (-2 to +2) = 0; inactive.
Against TOR1B, the entry reads two-siRNA summed score (-2 to +2) = 1; inactive.
Depletion of LOC388551 gave: two-siRNA summed score (-2 to +2) = 0; inactive.
CRYBA1 showed two-siRNA summed score (-2 to +2) = 1; inactive.
Silencing of SLC37A2 resulted in: two-siRNA summed score (-2 to +2) = 0; inactive.
Silencing of CFL2 resulted in: two-siRNA summed score (-2 to +2) = -1; inactive.
For CLPB the deposit lists two-siRNA summed score (-2 to +2) = 0; inactive.
For ZNF18, the entry reads two-siRNA summed score (-2 to +2) = 0; inactive.
Depletion of GBGT1 came out at: two-siRNA summed score (-2 to +2) = -1; inactive.
For POLR2I, the values are two-siRNA summed score (-2 to +2) = 0; inactive.
LOC392176 showed two-siRNA summed score (-2 to +2) = 0; inactive.
Against ZNF143 the deposit lists two-siRNA summed score (-2 to +2) = 0; inactive.
After knock-down of TRMT112P6 the results were two-siRNA summed score (-2 to +2) = 0; inactive.
For FXR1, the values are two-siRNA summed score (-2 to +2) = -1; inactive.
For WDR24 the deposit lists two-siRNA summed score (-2 to +2) = 1; inactive.
NTSR2 showed two-siRNA summed score (-2 to +2) = 0; inactive.
Against FDX1, the entry reads two-siRNA summed score (-2 to +2) = 1; inactive.
With knock-down of PLD2, the screen gave two-siRNA summed score (-2 to +2) = 0; inactive.
With knock-down of LOC442369, the record shows two-siRNA summed score (-2 to +2) = 0; inactive.

Sorted by “two-siRNA summed score (-2 to +2)” (lowest first): 4 of the entries above
SERPIND1: two-siRNA summed score (-2 to +2) = 0; outcome = inactive
KHNYN: two-siRNA summed score (-2 to +2) = 0; outcome = inactive
LOC388551: two-siRNA summed score (-2 to +2) = 0; outcome = inactive
TOR1B: two-siRNA summed score (-2 to +2) = 1; outcome = inactive
